Some of the results follow.

Drawing on article PMC7819943, “Rice protein-binding microarrays: a tool to detect cis-acting elements near promoter regions in rice”, this text covers binding signal for 42 sequences.

The test addresses T1, OsSMF1 (Oryza sativa, UniProt Q6ZLB0 1-436).
T1 sequence: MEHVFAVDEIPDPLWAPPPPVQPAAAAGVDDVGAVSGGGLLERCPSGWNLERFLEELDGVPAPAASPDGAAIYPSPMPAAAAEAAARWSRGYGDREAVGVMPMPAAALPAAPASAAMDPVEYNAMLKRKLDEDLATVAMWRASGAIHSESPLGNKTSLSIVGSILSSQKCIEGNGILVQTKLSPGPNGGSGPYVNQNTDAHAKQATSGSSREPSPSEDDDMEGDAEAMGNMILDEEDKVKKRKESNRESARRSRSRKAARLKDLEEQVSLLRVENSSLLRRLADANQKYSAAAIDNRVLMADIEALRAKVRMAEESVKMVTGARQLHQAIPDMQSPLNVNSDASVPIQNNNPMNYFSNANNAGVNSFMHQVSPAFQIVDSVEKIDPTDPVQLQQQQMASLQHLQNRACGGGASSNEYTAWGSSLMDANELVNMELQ
Put plainly: protein-binding microarray (RPBM); PBS, 2% BSA, 51.3 ng/ul salmon testes DNA, 50 uM zinc acetate, 200 nM TF, 25 C, 1 h; high values mean tight binding. To be noted: protein: recombinant; tags: N-terminal polyhistidine and DsRed monomer fusion (pET32a); chain copies: 2; label: CyDye5-dUTP incorporated in the synthesized complementary strand; 3' TTTTT single-stranded linker to array surface; dsDNA, one strand shown. An outline of the steps:
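Transcription factors were made in E. coli BL21-CodonPlus as N-terminal fusions to a polyhistidine tag and DsRed, then purified on Ni–NTA. After primer extension with Cy5-dUTP and blocking with 2% BSA, a custom Agilent array was exposed for 1 h at 25 °C to 200 nM protein in PBS, 2% BSA, salmon testes DNA and 50 µM zinc acetate. Washed arrays were scanned on an Axon 4000B, and the binding signal is per-feature fluorescence intensity in arbitrary units.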
As for “CCAATGCCGCGGTGACACGGCGGACAGTCGGACGTACAGTCGGAGTCACCTAGTGCAG”, the binding signal is 3150 fluorescence intensity (a.u.).

Turning to “CGGTGATCCCATACTTGGCACGTACACGTGCCCTCTTGATCGGAGTCACCTAGTGCAG”, the binding signal is 6030 fluorescence intensity (a.u.).

As to “TTCGCGCGCCACCTCCTCGCGCTCGCCTGCTTCTTCTCCCCGGAGTCACCTAGTGCAG”, the binding signal was 3380 fluorescence intensity (a.u.).

With “CCCTGCGCCGGCTGCCACACCCCACTCCGGCGACCCCTCTCGGAGTCACCTAGTGCAG”, the binding signal is 3360 fluorescence intensity (a.u.).

Take “CCACTTCCCACCCGTAGCGCCTCCCCGCGAACCCACTCCCCGGAGTCACCTAGTGCAG”: the binding signal is 22200 fluorescence intensity (a.u.).

On to “TTTGTTGTTAAAGGCTTTTGGTAACCTATATGTCAGCAATCGGAGTCACCTAGTGCAG”, for which the binding signal is 4280 fluorescence intensity (a.u.).

In the case of “GCAGGGGCGGGCCCACAATGATTCATGGGTATTCAAATGACGGAGTCACCTAGTGCAG”, the binding signal was 34100 fluorescence intensity (a.u.).

With “TTGCATCAGGATCACTCTCGTCTTCTTCGCTGTTGTTTTGCGGAGTCACCTAGTGCAG”, the binding signal was 4140 fluorescence intensity (a.u.).

As for “TTCTCCGAGATTTGGAGGCCAAACAGAGGGTTGGAGATTGCGGAGTCACCTAGTGCAG”, the binding signal was 3320 fluorescence intensity (a.u.).

Regarding “ACTTGTATTAATTCTTTTACGTGTTTAATTATATCGACTTCGGAGTCACCTAGTGCAG”, the binding signal is 3560 fluorescence intensity (a.u.).

Take “CTGAGCTGCCACCTCCGCCGCCGCCAGCATGATGGCCTTGCGGAGTCACCTAGTGCAG”: the binding signal is 42500 fluorescence intensity (a.u.).

With “TTTCAACGATGCTCATGTACACGGTGGCGTATGTGAGTGTCGGAGTCACCTAGTGCAG”, the binding signal was 3690 fluorescence intensity (a.u.).

For “GTTCAGCTATCAAAGTCCCTGAATAGTTTAGATTTACATTCGGAGTCACCTAGTGCAG”, the binding signal was 14100 fluorescence intensity (a.u.).

In the case of “CCAGCTCGGTTATACACACTCTAGCCAACCATGCATGGAGCGGAGTCACCTAGTGCAG”, the binding signal was 5070 fluorescence intensity (a.u.).

For the sequence “AAAAGTAATTTATAAATAAAATTTCTATATACGTGTTCTTCGGAGTCACCTAGTGCAG”, the binding signal is 3220 fluorescence intensity (a.u.).

Regarding “TTCTTAGGCTATGAGTAGGATTAAGGATCGCAGCCCTTTCCGGAGTCACCTAGTGCAG”, the binding signal was 3270 fluorescence intensity (a.u.).

Take “TTTTCTCGACGTGCGCACGCACGTACACAGACCGAATCGGCGGAGTCACCTAGTGCAG”: the binding signal is 3770 fluorescence intensity (a.u.).

For the sequence “ACCGTGGCGAGGATGGTGACAACATATTTCCAATTCTGTGCGGAGTCACCTAGTGCAG”, the binding signal is 5730 fluorescence intensity (a.u.).

Regarding “GCTAAACACGACGCTTCCATGGACGCGGGTGACGCGGCTTCGGAGTCACCTAGTGCAG”, the binding signal is 7270 fluorescence intensity (a.u.).

In the case of “GCTGCATCAGCTGCTGCTACTTCTACTCCTACTGCTGCTGCGGAGTCACCTAGTGCAG”, the binding signal was 30900 fluorescence intensity (a.u.).

For the sequence “CATTTCACAAATGACATCACTGGAGCGCCAAGGTCTAATCCGGAGTCACCTAGTGCAG”, the binding signal is 4190 fluorescence intensity (a.u.).

For the sequence “GAATGCCAAAACATATATTGTGCGAAATGGATCATGTCAACGGAGTCACCTAGTGCAG”, the binding signal is 3250 fluorescence intensity (a.u.).

On to “TGACACATGGGGTCTACGGTATTTTCTGACTAAGTACCACCGGAGTCACCTAGTGCAG”, for which the binding signal was 3320 fluorescence intensity (a.u.).

As to “AGATGCTCTGTCACTTCTATTGGTGACTTGGTGTTGGATGCGGAGTCACCTAGTGCAG”, the binding signal is 6620 fluorescence intensity (a.u.).

For “GGCCGGCGGGCGGATGGCGTCGTCGAGGGTGATGGCGGCGCGGAGTCACCTAGTGCAG”, the binding signal was 3890 fluorescence intensity (a.u.).

With “TAAATGCTCGGGCTAAAACAAGGATGGAACACGTCAGCGGCGGAGTCACCTAGTGCAG”, the binding signal was 20900 fluorescence intensity (a.u.).

As for “AGCGGTTTCGCTGACGTGGCGGTTAGGTGGCATTTGAATTCGGAGTCACCTAGTGCAG”, the binding signal was 23800 fluorescence intensity (a.u.).

Take “TTTTAACAACAGTGAGTGAGTGTGACGCACTGACGCTGCACGGAGTCACCTAGTGCAG”: the binding signal was 3720 fluorescence intensity (a.u.).

Regarding “GATGGTTTCTCCGGTAGTGACGCTATCAAGTGGCTGCCCCCGGAGTCACCTAGTGCAG”, the binding signal was 3320 fluorescence intensity (a.u.).

“GAGTAAACCAATCTATTCGAATAGCCGTACTCACATTTAACGGAGTCACCTAGTGCAG”: the binding signal was 38500 fluorescence intensity (a.u.).

Take “CCTATGAACTATGGCTTATGTACATTAACAGCAGGTTGCGCGGAGTCACCTAGTGCAG”: the binding signal is 6750 fluorescence intensity (a.u.).

As to “GTGCCTCCGTAGCAATGCCACGTCAGCATATGGAGCGGGTCGGAGTCACCTAGTGCAG”, the binding signal was 44600 fluorescence intensity (a.u.).

On to “CATTTGAGAGATTTTGTTTACTATTTTGGCATTGCTCTCACGGAGTCACCTAGTGCAG”, for which the binding signal is 11100 fluorescence intensity (a.u.).

On to “TCTCGAACGTTCTATTTTAATTTCCCTGACACGTTCGTCTCGGAGTCACCTAGTGCAG”, for which the binding signal was 4630 fluorescence intensity (a.u.).

Consider “CGCGCGTGCTCTCCTCTCCTCTCCTCTCGACTCTCGTGGTCGGAGTCACCTAGTGCAG”, for which the binding signal is 4020 fluorescence intensity (a.u.).

As to “ATTCTTGCTACCTATAATTGCAACATGACAGAGTGTTAAGCGGAGTCACCTAGTGCAG”, the binding signal was 3480 fluorescence intensity (a.u.).

As to “AAGCCTAATTAATCCGTCATTAACAAATATTTACTGTAGCCGGAGTCACCTAGTGCAG”, the binding signal was 3330 fluorescence intensity (a.u.).

As for “GTGGTAATGCATGCATGAAGAAAGAATGATGAGTTGGAAGCGGAGTCACCTAGTGCAG”, the binding signal is 3260 fluorescence intensity (a.u.).

Take “AGAGCAATTAAACGTCATAGGTATGTTTAGGTCACTTGGTCGGAGTCACCTAGTGCAG”: the binding signal was 3320 fluorescence intensity (a.u.).

For the sequence “CTGCGCTGGATCCGAGTCAGCCTCGCGTCGCTGTCACACTCGGAGTCACCTAGTGCAG”, the binding signal is 9550 fluorescence intensity (a.u.).

Take “TATTTTACTAGCTTTCCCCAACTCATCTCATCTCTGATCTCGGAGTCACCTAGTGCAG”: the binding signal is 3350 fluorescence intensity (a.u.).

On to “ATCTTTAGTCCCGGATTGGTAGTTCCGGTTTGAAAACCGGCGGAGTCACCTAGTGCAG”, for which the binding signal is 3760 fluorescence intensity (a.u.).
